Results are given in words; binding and its absence hold for the method and conditions named. Binding seen in cells or lysates may run through a third protein. Some entries that bind do so weakly or less than the wild type.
Columns and labels:
[1] = target: T1, endogenous STING (mouse cells) (mouse (endogenous in MEFs and BMDMs)) (UniProt Q3TBT3); assay: co-IP
T1 sequence: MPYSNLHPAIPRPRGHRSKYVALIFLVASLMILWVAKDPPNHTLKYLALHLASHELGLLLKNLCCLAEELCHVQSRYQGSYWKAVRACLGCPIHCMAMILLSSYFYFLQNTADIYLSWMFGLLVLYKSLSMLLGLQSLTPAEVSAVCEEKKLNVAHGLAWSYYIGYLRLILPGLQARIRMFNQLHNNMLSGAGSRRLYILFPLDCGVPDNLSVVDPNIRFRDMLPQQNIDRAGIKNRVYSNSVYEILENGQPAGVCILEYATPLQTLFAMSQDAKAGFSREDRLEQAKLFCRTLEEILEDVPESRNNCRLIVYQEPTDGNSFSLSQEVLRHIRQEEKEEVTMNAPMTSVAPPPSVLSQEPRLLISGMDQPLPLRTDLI

The chains behind the UniProt entries cited, without tags or fusion partners.
UniProt Q99942: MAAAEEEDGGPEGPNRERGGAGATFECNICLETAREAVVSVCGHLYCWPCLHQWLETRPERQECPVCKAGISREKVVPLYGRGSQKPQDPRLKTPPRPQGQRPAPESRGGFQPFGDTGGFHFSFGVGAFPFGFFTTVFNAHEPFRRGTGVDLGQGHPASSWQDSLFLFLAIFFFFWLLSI
UniProt O35445: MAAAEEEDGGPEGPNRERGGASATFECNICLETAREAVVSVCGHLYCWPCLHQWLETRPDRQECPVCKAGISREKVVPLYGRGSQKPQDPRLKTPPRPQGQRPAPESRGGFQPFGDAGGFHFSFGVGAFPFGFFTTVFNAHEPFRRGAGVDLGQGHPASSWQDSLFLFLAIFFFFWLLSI
UniProt Q86WV6: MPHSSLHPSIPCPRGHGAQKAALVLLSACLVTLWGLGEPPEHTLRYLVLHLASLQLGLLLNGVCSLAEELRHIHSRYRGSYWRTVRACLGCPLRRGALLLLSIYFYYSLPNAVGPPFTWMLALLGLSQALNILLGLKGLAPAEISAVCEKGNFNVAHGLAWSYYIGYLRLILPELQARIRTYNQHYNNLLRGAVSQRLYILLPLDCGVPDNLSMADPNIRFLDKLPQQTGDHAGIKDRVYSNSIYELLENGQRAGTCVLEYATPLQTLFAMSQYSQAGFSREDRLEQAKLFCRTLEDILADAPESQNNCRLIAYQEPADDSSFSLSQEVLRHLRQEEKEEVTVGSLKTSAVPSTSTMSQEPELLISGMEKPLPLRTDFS

[2] = target: Flag-tagged RNF5 (UniProt Q99942); assay: co-IP; HEK293T transfected with the indicated plasmids (RNF5, STING, CYLD), 36 h; IP with anti-Flag (S4B Fig)

Substance | binding [1] | binding [2]
endogenous RNF5 (MEFs) (from UniProt O35445 1-180) (enzyme) | binds | 
HA-tagged STING (from UniProt Q86WV6 1-379) |  | binds

Reference: article PMC6235404
